# Results from one PubChem assay

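Merkel cell carcinoma cell lines (MCC-26, WaGa, MKL-1, MKL-2) were scored for viability by CellTiter-Glo luminescence after 72 hours of compound exposure.
Dose-response series of 8 or 11 points, topping out at 44.8 µM.
The number is a fitted potency (AC50, nM) for loss of viability; a lower value means a more potent compound.
Calls follow curve shape: inconclusive marks small, poorly fitted or top-dose-only inhibition, while active requires a well-fitted curve with a large effect.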

Values are in nM.
Every entry below has the call inconclusive.
These entries are mostly ones the record files as inconclusive; other results of the assay are not listed here.
Potencies fitted to partial, single-point or poorly fitting curves are rough.

| structure | condition | fitted potency (nM) | curve as filed |
|---|---|---|---|
| `C[C@@H]1CC[C@H]2[C@@H](C)C(=O)O[C@@H]3O[C@@]4(C)CC[C@@H]1[C@]32OO4` | UISO | 9441 | inhibitor, partial curve, poor fit |
| `COc1ccc(/C=C/C(=O)c2ccc(OC)cc2OC)cc1` | MKL-1 | 26608 | inhibitor, single point |
| `CCc1cc(OC)c(C[C@H](C)N)cc1OC` | UISO | 79896 | inhibitor, single point |
| `O=C1OC(CN2CCOCC2)CN1/N=C/c1ccc([N+](=O)[O-])o1` (stereo not given) | MKL-1 | 23715 | inhibitor, partial curve, poor fit |
| `CCc1cc2c(cc1N1CCC(N3CCOCC3)CC1)C(C)(C)c1[nH]c3cc(C#N)ccc3c1C2=O` | MKL-2 | 8333 | inhibitor, full curve, poor fit |
| `COc1cnc(NS(=O)(=O)c2ccc(N)cc2)nc1` | MKL-2 | 13206 | inhibitor, partial curve |
| `CC[C@H]1C[C@H]2[C@@H]3CCC4=CC(=O)CC[C@@H]4[C@H]3CC[C@]2(C)[C@H]1O` | MKL-2 | 13335 | inhibitor, partial curve |
| `CCOc1ccccc1C(N)=O` | MCC-26 | 33498 | inhibitor, single point |
| `Oc1ccc([C@H]2CNCc3c2ccc(O)c3O)cc1O` | MKL-1 | 23715 | inhibitor, single point |
| `CCCC(C(=O)OCCN(CC)CC)(c1ccccc1)c1ccccc1` | MCC-13 | 33498 | inhibitor, single point |
| `NNc1ccccc1` | UISO | 33498 | inhibitor, single point |
| `CC(C)c1cccc(C(C)C)c1O` | UISO | 33173 | inhibitor, single point |
| `COc1cc(C(=O)NS(=O)(=O)c2ccccc2C)ccc1Cc1cn(C)c2ccc(NC(=O)OC3CCCC3)cc12` | MCC-26 | 13206 | inhibitor, partial curve, poor fit |
| `C=CCNc1nc(NCC=C)nc(N2CCN(C(c3ccc(F)cc3)c3ccc(F)cc3)CC2)n1` | UISO | 1884 | inhibitor, partial curve, poor fit |
| `O=C(CCCN1CCC(O)(c2ccc(Br)cc2)CC1)c1ccc(F)cc1` | MCC-13 | 13335 | inhibitor, partial curve, poor fit |
| `CCCCCC(=O)O[C@]1(C(C)=O)CC[C@H]2[C@@H]3CCC4=CC(=O)CC[C@]4(C)[C@H]3CC[C@@]21C` | MCC-13 | 26608 | inhibitor, single point |

Repeated from the top, 2 entries:

- C[C@@H]1CC[C@H]2[C@@H](C)C(=O)O[C@@H]3O[C@@]4(C)CC[C@@H]1[C@]32OO4 [UISO] : fitted potency 9441 nM (inhibitor, partial curve, poor fit)
- COc1ccc(/C=C/C(=O)c2ccc(OC)cc2OC)cc1 [MKL-1] : fitted potency 26608 nM (inhibitor, single point)

Data taken from PubChem BioAssay AID1296009, deposited by NCATS (2018).